Source: PMC6940395
Results are given in words; binding and its absence hold for the method and conditions named. In cells and extracts the contact can be indirect.

Biological target: T1, OST1/SnRK2.6 expressed in Arabidopsis mesophyll cell protoplasts (Arabidopsis) (UniProt Q940H6)
T1 sequence: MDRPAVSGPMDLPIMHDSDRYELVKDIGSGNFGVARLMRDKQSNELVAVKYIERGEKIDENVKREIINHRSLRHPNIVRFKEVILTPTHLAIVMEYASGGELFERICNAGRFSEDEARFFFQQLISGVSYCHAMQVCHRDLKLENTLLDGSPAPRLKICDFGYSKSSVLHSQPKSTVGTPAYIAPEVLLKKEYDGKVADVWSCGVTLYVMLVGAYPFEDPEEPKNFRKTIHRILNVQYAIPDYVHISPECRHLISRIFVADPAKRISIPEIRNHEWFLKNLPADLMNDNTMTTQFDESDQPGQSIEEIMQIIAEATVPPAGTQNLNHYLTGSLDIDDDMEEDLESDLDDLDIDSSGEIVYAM
Experiment: co-IP; M3Kδ6 and OST1/SnRK2.6 expressed in Arabidopsis mesophyll cell protoplasts

Question: With “M3Kδ6 expressed in Arabidopsis mesophyll cell protoplasts (enzyme)” as the substance, how does the binding read?
Answer: The binding was “no binding”.
